Results from the supplement of paper PMC8728848.
The list shows a part of the results.

Key:
Assay in all cases: glycan array binding signal (z-score within array); higher = stronger binding
Conditions in all cases: glycan notation: IUPAC condensed, linker removed
Gal(a1-6)Glc = target: Gal(a1-6)Glc
In short: (§1)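 Glycan array data were curated from 3228 arrays in the Consortium for Functional Glycomics database and kept only where the protein sequence was available. Glycan names were converted to IUPAC-condensed notation, and columns mapping to the same glycan were averaged. The binding signal is a within-array Z-score, averaged across arrays of the same protein sequence at different concentrations or buffers and across linkers. Negative Z-scores can be read as non-binding.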

Gal(b1-2)Gal = target: Gal(b1-2)Gal
In short: as §1

Gal(b1-3)Gal = target: Gal(b1-3)Gal
In short: as §1

Gal(b1-3)Gal(b1-4)GlcNAc = target: Gal(b1-3)Gal(b1-4)GlcNAc
In short: as §1

Gal(b1-3)GalNAc = target: Gal(b1-3)GalNAc
In short: as §1

[1] = target: Gal(b1-3)GalNAc(a1-3)[Fuc(a1-2)]Gal(b1-4)Glc
In short: as §1

[2] = target: Gal(b1-3)GalNAc(a1-3)[Fuc(a1-2)]Gal(b1-4)GlcNAc
In short: as §1

Gal(b1-3)GalNAc(b1-3)Gal = target: Gal(b1-3)GalNAc(b1-3)Gal
In short: as §1

[3] = target: Gal(b1-3)GalNAc(b1-3)Gal(a1-4)Gal(b1-4)Glc
In short: as §1

[4] = target: Gal(b1-3)GalNAc(b1-4)Gal(b1-4)Glc
In short: as §1

[5] = target: Gal(b1-3)GalNAc(b1-4)[Neu5Ac(a2-3)]Gal(b1-4)Glc
In short: as §1

Gal(b1-3)GlcNAc = target: Gal(b1-3)GlcNAc
In short: as §1

[6] = target: Gal(b1-3)GlcNAc(a1-3)Gal(b1-4)GlcNAc
In short: as §1

[7] = target: Gal(b1-3)GlcNAc(a1-6)Gal(b1-4)GlcNAc
In short: as §1

Gal(b1-3)GlcNAc(b1-2)Man = target: Gal(b1-3)GlcNAc(b1-2)Man
In short: as §1

[8] = target: Gal(b1-3)GlcNAc(b1-2)Man(a1-3)[Gal(b1-3)GlcNAc(b1-2)Man(a1-6)]Man(b1-4)GlcNAc(b1-4)GlcNAc
In short: as §1

[9] = target: Gal(b1-3)GlcNAc(b1-2)Man(a1-3)[Gal(b1-3)GlcNAc(b1-2)Man(a1-6)]Man(b1-4)GlcNAc(b1-4)[Fuc(a1-6)]GlcNAc
In short: as §1

[10] = target: Gal(b1-3)GlcNAc(b1-2)Man(a1-3)[GlcNAc(b1-4)][Gal(b1-3)GlcNAc(b1-2)Man(a1-6)]Man(b1-4)GlcNAc(b1-4)GlcNAc
In short: as §1

[11] = target: Gal(b1-3)GlcNAc(b1-2)[Gal(b1-3)GlcNAc(b1-6)]Man(a1-6)[Gal(b1-3)GlcNAc(b1-2)Man(a1-3)]Man(b1-4)GlcNAc(b1-4)GlcNAc
In short: as §1

[12] = target: Gal(b1-3)GlcNAc(b1-3)Gal(b1-3)GlcNAc
In short: as §1

[13] = target: Gal(b1-3)GlcNAc(b1-3)Gal(b1-4)Glc
In short: as §1

[14] = target: Gal(b1-3)GlcNAc(b1-3)Gal(b1-4)GlcNAc
In short: as §1

[15] = target: Gal(b1-3)GlcNAc(b1-3)Gal(b1-4)GlcNAc(b1-2)Man(a1-3)[Gal(b1-3)GlcNAc(b1-3)Gal(b1-4)GlcNAc(b1-2)Man(a1-6)]Man(b1-4)GlcNAc(b1-4)GlcNAc
In short: as §1

[16] = target: Gal(b1-3)GlcNAc(b1-3)Gal(b1-4)GlcNAc(b1-2)[Gal(b1-3)GlcNAc(b1-3)Gal(b1-4)GlcNAc(b1-6)]Man(a1-6)[Gal(b1-3)GlcNAc(b1-3)Gal(b1-4)GlcNAc(b1-2)Man(a1-3)]Man(b1-4)GlcNAc(b1-4)[Fuc(a1-6)]GlcNAc
In short: as §1

[17] = target: Gal(b1-3)GlcNAc(b1-3)Gal(b1-4)GlcNAc(b1-3)Gal(b1-4)GlcNAc(b1-2)[Gal(b1-3)GlcNAc(b1-3)Gal(b1-4)GlcNAc(b1-3)Gal(b1-4)GlcNAc(b1-6)]Man(a1-6)[Gal(b1-3)GlcNAc(b1-3)Gal(b1-4)GlcNAc(b1-3)Gal(b1-4)GlcNAc(b1-2)Man(a1-3)]Man(b1-4)GlcNAc(b1-4)[Fuc(a1-6)]GlcNAc
In short: as §1

[18] = target: Gal(b1-3)GlcNAc(b1-3)Gal(b1-4)GlcNAc(b1-6)[Gal(b1-3)GlcNAc(b1-3)]Gal(b1-4)Glc
In short: as §1

[19] = target: Gal(b1-3)GlcNAc(b1-3)Gal(b1-4)[Fuc(a1-3)]GlcNAc
In short: as §1

[20] = target: Gal(b1-3)GlcNAc(b1-3)Gal(b1-4)[Fuc(a1-3)]GlcNAc(b1-6)[Gal(b1-3)GlcNAc(b1-3)]Gal(b1-4)Glc
In short: as §1

[21] = target: Gal(b1-3)GlcNAc(b1-3)GalNAc
In short: as §1

[22] = target: Gal(b1-3)GlcNAc(b1-6)Gal(b1-4)GlcNAc
In short: as §1

[23] = target: Gal(b1-3)GlcNAc(b1-6)GalNAc
In short: as §1

[24] = target: Gal(b1-3)GlcNAc(b1-6)[Gal(b1-3)]GalNAc
In short: as §1

Gal(b1-3)GlcNAc6S = target: Gal(b1-3)GlcNAc6S
In short: as §1

[25] = target: Gal(b1-3)[Fuc(a1-4)]GlcNAc
In short: as §1

[26] = target: Gal(b1-3)[Fuc(a1-4)]GlcNAc(b1-2)Man
In short: as §1

[27] = target: Gal(b1-3)[Fuc(a1-4)]GlcNAc(b1-2)Man(a1-3)[Gal(b1-3)[Fuc(a1-4)]GlcNAc(b1-2)Man(a1-6)]Man(b1-4)GlcNAc(b1-4)[Fuc(a1-6)]GlcNAc
In short: as §1

[28] = target: Gal(b1-3)[Fuc(a1-4)]GlcNAc(b1-3)Gal(b1-3)[Fuc(a1-4)]GlcNAc
In short: as §1

[29] = target: Gal(b1-3)[Fuc(a1-4)]GlcNAc(b1-3)Gal(b1-4)[Fuc(a1-3)]GlcNAc
In short: as §1

[30] = target: Gal(b1-3)[Fuc(a1-4)]GlcNAc(b1-6)GalNAc
In short: as §1

[31] = target: Gal(b1-3)[GlcNAc(b1-6)]GalNAc
In short: as §1

[32] = target: Gal(b1-3)[Neu5Ac(a2-6)]GalNAc
In short: as §1

[33] = target: Gal(b1-3)[Neu5Ac(a2-6)]GlcNAc(b1-4)Gal(b1-4)Glc
In short: as §1

[34] = target: Gal(b1-3)[Neu5Ac(b2-6)]GalNAc
In short: as §1

Gal(b1-4)Gal = target: Gal(b1-4)Gal
In short: as §1

[35] = target: Gal(b1-4)GalNAc(a1-3)[Fuc(a1-2)]Gal(b1-4)GlcNAc
In short: as §1

B1: EfCBM33A (Enterococcus faecalis), Q838S1 (protein)
chain: MKKSLLTIVLAFSFVLGGAALAPTVSEAHGYVASPGSRAFFGSSAGGNLNTNVGRAQWEPQSIEAPKNTFITGKLASAGVSGFEPLDEQTATRWHKTNITTGPLDITWNLTAQHRTASWDYYITKNGWNPNQPLDIKNFDKIASIDGKQEVPNKVVKQTINIPTDRKGYHVIYAVWGIGDTVNAFYQAIDVNIQ
- glycan array binding signal (z-score) (Gal(a1-6)Glc): -0.904
- glycan array binding signal (z-score) (Gal(b1-2)Gal): 0.182
- glycan array binding signal (z-score) (Gal(b1-3)Gal): 0.159
- glycan array binding signal (z-score) (Gal(b1-3)Gal(b1-4)GlcNAc): -0.017
- glycan array binding signal (z-score) (Gal(b1-3)GalNAc): 0.774
- glycan array binding signal (z-score) [1]: 1.35
- glycan array binding signal (z-score) [2]: -1.18
- glycan array binding signal (z-score) (Gal(b1-3)GalNAc(b1-3)Gal): -0.58
- glycan array binding signal (z-score) [3]: 0.56
- glycan array binding signal (z-score) [4]: -0.489
- glycan array binding signal (z-score) [5]: -0.003
- glycan array binding signal (z-score) (Gal(b1-3)GlcNAc): -0.112
- glycan array binding signal (z-score) [6]: 0.358
- glycan array binding signal (z-score) [7]: -1.02
- glycan array binding signal (z-score) (Gal(b1-3)GlcNAc(b1-2)Man): 0.27
- glycan array binding signal (z-score) [8]: -0.145
- glycan array binding signal (z-score) [9]: -1.82
- glycan array binding signal (z-score) [10]: 0.324
- glycan array binding signal (z-score) [11]: 0.094
- glycan array binding signal (z-score) [12]: -0.688
- glycan array binding signal (z-score) [13]: -0.371
- glycan array binding signal (z-score) [14]: 2.06
- glycan array binding signal (z-score) [15]: 0.319
- glycan array binding signal (z-score) [16]: 0.239
- glycan array binding signal (z-score) [17]: 0.259
- glycan array binding signal (z-score) [18]: 0.202
- glycan array binding signal (z-score) [19]: -0.578
- glycan array binding signal (z-score) [20]: 0.039
- glycan array binding signal (z-score) [21]: -0.372
- glycan array binding signal (z-score) [22]: 0.238
- glycan array binding signal (z-score) [23]: 0.08
- glycan array binding signal (z-score) [24]: -1.31
- glycan array binding signal (z-score) (Gal(b1-3)GlcNAc6S): -0.191
- glycan array binding signal (z-score) [25]: 0.239
- glycan array binding signal (z-score) [26]: 0.661
- glycan array binding signal (z-score) [27]: 0.012
- glycan array binding signal (z-score) [28]: -1.4
- glycan array binding signal (z-score) [29]: -1.13
- glycan array binding signal (z-score) [30]: 1.97
- glycan array binding signal (z-score) [31]: -0.355
- glycan array binding signal (z-score) [32]: -0.171
- glycan array binding signal (z-score) [33]: 0.516
- glycan array binding signal (z-score) [34]: -2.01
- glycan array binding signal (z-score) (Gal(b1-4)Gal): 0.938
- glycan array binding signal (z-score) [35]: -0.429
